In PMC8726646:
Results are given in words; binding and its absence hold for the method and conditions named. Binding seen in cells or lysates may run through a third protein. Some results given as binding are weak or reduced against the parent protein; the word gives no strength.

By UniProt entry, the sequences of proteins in these tests, tags left out.
UniProt P37231: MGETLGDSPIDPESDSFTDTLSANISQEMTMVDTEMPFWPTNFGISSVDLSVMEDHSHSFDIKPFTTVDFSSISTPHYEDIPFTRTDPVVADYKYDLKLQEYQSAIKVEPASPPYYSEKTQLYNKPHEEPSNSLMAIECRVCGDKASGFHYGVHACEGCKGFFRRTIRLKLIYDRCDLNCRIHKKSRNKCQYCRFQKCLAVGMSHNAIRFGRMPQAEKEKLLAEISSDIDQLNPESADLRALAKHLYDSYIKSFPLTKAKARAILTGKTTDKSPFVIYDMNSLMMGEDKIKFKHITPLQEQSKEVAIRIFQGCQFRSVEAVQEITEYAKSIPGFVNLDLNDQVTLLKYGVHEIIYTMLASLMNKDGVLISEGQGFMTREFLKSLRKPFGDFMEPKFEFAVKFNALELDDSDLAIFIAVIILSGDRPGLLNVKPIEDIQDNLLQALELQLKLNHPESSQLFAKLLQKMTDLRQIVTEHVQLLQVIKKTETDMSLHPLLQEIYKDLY
UniProt Q15208: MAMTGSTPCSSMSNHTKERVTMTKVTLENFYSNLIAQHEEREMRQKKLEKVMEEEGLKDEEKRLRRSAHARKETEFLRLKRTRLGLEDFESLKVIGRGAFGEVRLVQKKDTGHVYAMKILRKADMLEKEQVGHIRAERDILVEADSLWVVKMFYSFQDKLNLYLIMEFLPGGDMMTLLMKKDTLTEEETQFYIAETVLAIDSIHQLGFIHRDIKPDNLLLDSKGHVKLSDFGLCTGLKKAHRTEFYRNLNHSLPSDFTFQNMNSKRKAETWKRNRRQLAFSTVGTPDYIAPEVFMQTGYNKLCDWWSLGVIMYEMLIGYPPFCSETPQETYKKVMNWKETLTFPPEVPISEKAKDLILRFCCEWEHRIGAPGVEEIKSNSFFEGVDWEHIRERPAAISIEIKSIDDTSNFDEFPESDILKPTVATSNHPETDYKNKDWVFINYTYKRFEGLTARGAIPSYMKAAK

Molecular target: Flag-PPARγ, transfected in HEK293 cells (UniProt P37231)
Assay: co-IP; HEK293 cells (methods: HEK-293 T) co-transfected with Flag- and Myc-tagged proteins, lysed in RIPA buffer 48 h after transfection; anti-Flag beads overnight at 4°C; Western blot with anti-Flag or anti-Myc antibody

For “Myc-STK38, transfected in HEK293 cells (from UniProt Q15208 1-465) (enzyme)”, the binding was “binds”.
